From PubChem BioAssay AID1345085 (National Center for Advancing Translational Sciences (NCATS), 2018)
The shares of active, inactive and inconclusive entries below differ from those in the screen. Where the call is inconclusive, the potency comes from a doubtful curve fit. The source made the active and inactive calls. Calls come from the whole dose curve; as a rule, active = well fitted cell-killing curve with a large enough effect; inconclusive = small, poorly fitted or top-dose-only effect, or effect the other way; inactive = no such curve, though single readings can be large or run the other way. *1 amine or outer side, *2 acyl side, *3 side chain or, on linkers, in order; H or OH if unused. Where a SMILES comes first, the peptide text is derived from it. Bridges are numbered along the chain shown (N, C = ends). Roman numbers before positions name the chains, in order. [ ]: non-standard residue; d: D form. Actinocin(9to1) = Cc1c2oc3c(C)ccc(C(=O)[*:1])c3nc-2c(C(=O)[*:2])c(N)c1=O; NMeV = CN[C@H](C(=O)O)C(C)C; Sar = CNCC(=O)O

system: Tov-21-G; assay: Confirmatory qHTS for gynecologic anti-cancer compounds from libraries of approved drugs and bioactive compounds; settings: gynecologic cancer cell panel viability, ATPlite luminescence, 48 h; series mostly up to 57.7 µM; note: nearly all actives have a fitted effect of over 55% in size
Outline: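 Seeding 1,000 cells per well preceded overnight (16 h) attachment, after which 48 h drug treatment across 57.5 uM–0.977 nM (11 points) was applied. Remaining cellular ATP, detected by ATPlite luminescence, defined IC50.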
Potency is the fitted concentration of half-maximal effect.

Question: How did the Potency turn out when `CN1C(=O)C(Cc2c[nH]c3ccccc23)NC1=S` (stereo not given) was run?
Answer: inconclusive: 4.73 µM [cytotoxic, single point]

Question: For `Nc1ncnc2c1ncn2[C@@H]1O[C@H](CO)C[C@H]1O`, which Potency is on record?
Answer: inconclusive: 2.73 µM [rising, partial curve, poor fit]

Question: For `CC(C)C[C@H](NC(=O)[C@H](CCc1ccccc1)NC(=O)CN1CCOCC1)C(=O)N[C@@H](Cc1ccccc1)C(=O)N[C@@H](CC(C)C)C(=O)[C@@]1(C)CO1`, which Potency is on record?
Answer: active: 2.17 µM

Question: `Cc1c(NC(=O)OCC2COCCN2)cn2ncnc(Nc3ccc4c(cnn4Cc4cccc(F)c4)c3)c12` (stereo not given) was tested. Which Potency did it give?
Answer: active: 3.06 µM

Question: Which Potency does the source give for `COc1ccc2c(c1)c(CC(=O)O)c(C)n2C(=O)c1ccc(Cl)cc1` here?
Answer: inconclusive: 0.0049 µM [rising, partial curve, poor fit]

Question: How did the Potency turn out when `CCN(CC)CCOc1ccc(/C(=C(\Cl)c2ccccc2)c2ccccc2)cc1` was run?
Answer: active: 126 µM

Question: How did the Potency turn out when `Cc1cc(Nc2cc(N3CCN(C)CC3)nc(/C=C/c3ccccc3)n2)n[nH]1` was run?
Answer: active: 1.72 µM

Question: Which Potency does the source give for `CC(C)n1c(/C=C/[C@@H](O)C[C@@H](O)CC(=O)O)c(-c2ccc(F)cc2)c2ccccc21` here?
Answer: inactive

Question: With `CCN[C@H]1C[C@H](C)S(=O)(=O)c2sc(S(N)(=O)=O)cc21` as the compound, how does the Potency read?
Answer: inconclusive: 3.06 µM [rising, partial curve, poor fit]

Question: For `CN1CCN(c2cccc(Nc3nc4c(-c5ccc(S(C)(=O)=O)cc5)cccn4n3)c2)CC1`, which Potency is on record?
Answer: inconclusive: 3.06 µM [cytotoxic, full curve, poor fit]

Question: How did the Potency turn out when `Cc1cncc2cccc(S(=O)(=O)N3CCCN(C(=O)CN)C[C@@H]3C)c12` was run?
Answer: inactive

Question: With `c1nc2nc(Nc3ccc(N4CCOCC4)cc3)nc(NC3CCCCC3)c2[nH]1` as the compound, how does the Potency read?
Answer: inconclusive: 2.98 µM [cytotoxic, full curve, poor fit]

Question: `Cc1c2oc3c(C)ccc(C(=O)N[C@@H]4C(=O)N[C@H](C(C)C)C(=O)N5CCC[C@H]5C(=O)N(C)CC(=O)N(C)[C@@H](C(C)C)C(=O)O[C@@H]4C)c3nc-2c(C(=O)N[C@@H]2C(=O)N[C@H](C(C)C)C(=O)N3CCC[C@H]3C(=O)N(C)CC(=O)N(C)[C@@H](C(C)C)C(=O)O[C@@H]2C)c(N)c1=O` (I: T[dV]P[Sar][NMeV] / II: T[dV]P[Sar][NMeV]; ester I:1-I:C, II:1-II:C; linker I:N-II:N via Actinocin(9to1)) was tested. Which Potency did it give?
Answer: active: 0.685 µM

Question: For `CCCCc1oc2ccc(NS(C)(=O)=O)cc2c1C(=O)c1ccc(OCCCN(CCCC)CCCC)cc1`, which Potency is on record?
Answer: inconclusive: 27.3 µM [cytotoxic, partial curve, poor fit]

Question: With `C1CCC(C(CC2CCCCN2)C2CCCCC2)CC1` (stereo not given) as the compound, how does the Potency read?
Answer: active: 12.2 µM

Question: How did the Potency turn out when `Cc1nc(Nc2ncc(C(=O)Nc3c(C)cccc3Cl)s2)cc(N2CCN(CCO)CC2)n1` was run?
Answer: inconclusive: 0.0217 µM [cytotoxic, full curve]

Question: `CC(=O)c1cnc2ccc(-c3cc(Cl)c(O)c(Cl)c3)nc2c1NC1CCC(CN(C)C)CC1` (stereo not given) was tested. Which Potency did it give?
Answer: active: 0.559 µM

Question: For `CN(C)C(CCOc1cccc2ccccc12)c1ccccc1` (stereo not given), which Potency is on record?
Answer: inconclusive: 12.2 µM [cytotoxic, full curve, poor fit]

Question: How did the Potency turn out when `COc1cc(Nc2ncc3c(n2)-c2ccc(Cl)cc2C(c2c(F)cccc2OC)=NC3)ccc1C(=O)O` was run?
Answer: inconclusive: 27.3 µM [cytotoxic, partial curve, poor fit]

Question: How did the Potency turn out when `COc1c(C)c2c(c(O)c1C/C=C(\C)CCC(=O)O)C(=O)OC2` was run?
Answer: inconclusive: 0.137 µM [rising, single point]

Question: With `NC1(c2ccc(-c3nc4ccn5c(=O)[nH]nc5c4cc3-c3ccccc3)cc2)CCC1` as the compound, how does the Potency read?
Answer: inactive

Question: With `O=C(O)c1ccc(Nc2ncc3c(n2)-c2ccc(Cl)cc2C(c2c(F)cccc2F)=NC3)cc1` as the compound, how does the Potency read?
Answer: inconclusive: 10.9 µM [cytotoxic, partial curve, poor fit]

Question: Which Potency does the source give for `CC(C)[C@@H](CS(=O)(=O)C(C)C)N1C(=O)[C@@](C)(CC(=O)O)C[C@H](c2cccc(Cl)c2)[C@H]1c1ccc(Cl)cc1` here?
Answer: inconclusive: 1.37 µM [cytotoxic, full curve, poor fit]

Question: `Cc1cc(Nc2nc(N[C@@H](C)c3ccc(F)cc3)c(C#N)cc2F)n[nH]1` was tested. Which Potency did it give?
Answer: inconclusive: 3.85 µM [cytotoxic, full curve, poor fit]

Question: For `CN(C[C@@H]1COCCO1)S(=O)(=O)Nc1ccc2ccc3ncc(-c4cnn(C)c4)cc3c(=O)c2c1`, which Potency is on record?
Answer: active: 17.2 µM
